Experimental data published in publication PMC10435766.

Sequences of proteins named here, by UniProt entry; tags and fusion partners are left off. Residues count along the entry.
UniProt Q7Z434: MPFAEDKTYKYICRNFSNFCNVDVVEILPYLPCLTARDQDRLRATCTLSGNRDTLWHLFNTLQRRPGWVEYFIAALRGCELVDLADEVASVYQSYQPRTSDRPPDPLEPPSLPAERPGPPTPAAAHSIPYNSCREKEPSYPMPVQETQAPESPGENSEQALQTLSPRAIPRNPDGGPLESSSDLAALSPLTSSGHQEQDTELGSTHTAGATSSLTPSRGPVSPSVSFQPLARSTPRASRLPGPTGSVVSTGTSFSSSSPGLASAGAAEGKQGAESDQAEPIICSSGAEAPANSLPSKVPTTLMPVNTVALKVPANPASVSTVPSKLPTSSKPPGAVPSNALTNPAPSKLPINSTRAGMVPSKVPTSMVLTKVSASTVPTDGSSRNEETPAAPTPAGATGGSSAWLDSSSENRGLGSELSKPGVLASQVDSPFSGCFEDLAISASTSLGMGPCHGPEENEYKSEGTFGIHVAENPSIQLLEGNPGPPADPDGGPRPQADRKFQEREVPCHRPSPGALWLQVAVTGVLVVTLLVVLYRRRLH
UniProt P01042, residues 19-644: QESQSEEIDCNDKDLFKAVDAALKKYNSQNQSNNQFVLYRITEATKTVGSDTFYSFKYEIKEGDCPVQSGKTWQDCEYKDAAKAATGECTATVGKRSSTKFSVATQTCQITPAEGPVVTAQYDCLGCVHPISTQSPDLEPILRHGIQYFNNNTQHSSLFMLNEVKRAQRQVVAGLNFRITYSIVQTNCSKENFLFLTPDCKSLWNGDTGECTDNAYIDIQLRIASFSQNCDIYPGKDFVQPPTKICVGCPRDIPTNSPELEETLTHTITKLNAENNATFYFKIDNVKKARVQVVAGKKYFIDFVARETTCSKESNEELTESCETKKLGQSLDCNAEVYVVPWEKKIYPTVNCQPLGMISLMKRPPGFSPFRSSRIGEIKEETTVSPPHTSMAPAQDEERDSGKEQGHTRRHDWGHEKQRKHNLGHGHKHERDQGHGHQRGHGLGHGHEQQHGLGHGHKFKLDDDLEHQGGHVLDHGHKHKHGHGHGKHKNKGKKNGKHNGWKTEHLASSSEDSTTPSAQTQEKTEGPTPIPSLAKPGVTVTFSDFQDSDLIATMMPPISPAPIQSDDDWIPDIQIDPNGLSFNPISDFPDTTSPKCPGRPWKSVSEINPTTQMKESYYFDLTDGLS
UniProt P26641: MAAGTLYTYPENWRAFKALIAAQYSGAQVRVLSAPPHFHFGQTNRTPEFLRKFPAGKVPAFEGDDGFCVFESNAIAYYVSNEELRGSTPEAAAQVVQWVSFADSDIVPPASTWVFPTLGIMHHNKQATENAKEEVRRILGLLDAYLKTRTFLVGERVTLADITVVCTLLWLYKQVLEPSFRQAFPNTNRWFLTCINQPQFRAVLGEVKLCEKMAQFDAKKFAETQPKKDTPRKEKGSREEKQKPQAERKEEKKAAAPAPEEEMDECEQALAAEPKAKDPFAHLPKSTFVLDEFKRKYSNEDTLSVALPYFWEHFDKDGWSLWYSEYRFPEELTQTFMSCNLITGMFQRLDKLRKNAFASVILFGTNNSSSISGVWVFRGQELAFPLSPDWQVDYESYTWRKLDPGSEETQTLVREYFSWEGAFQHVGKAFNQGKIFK
UniProt Q07065: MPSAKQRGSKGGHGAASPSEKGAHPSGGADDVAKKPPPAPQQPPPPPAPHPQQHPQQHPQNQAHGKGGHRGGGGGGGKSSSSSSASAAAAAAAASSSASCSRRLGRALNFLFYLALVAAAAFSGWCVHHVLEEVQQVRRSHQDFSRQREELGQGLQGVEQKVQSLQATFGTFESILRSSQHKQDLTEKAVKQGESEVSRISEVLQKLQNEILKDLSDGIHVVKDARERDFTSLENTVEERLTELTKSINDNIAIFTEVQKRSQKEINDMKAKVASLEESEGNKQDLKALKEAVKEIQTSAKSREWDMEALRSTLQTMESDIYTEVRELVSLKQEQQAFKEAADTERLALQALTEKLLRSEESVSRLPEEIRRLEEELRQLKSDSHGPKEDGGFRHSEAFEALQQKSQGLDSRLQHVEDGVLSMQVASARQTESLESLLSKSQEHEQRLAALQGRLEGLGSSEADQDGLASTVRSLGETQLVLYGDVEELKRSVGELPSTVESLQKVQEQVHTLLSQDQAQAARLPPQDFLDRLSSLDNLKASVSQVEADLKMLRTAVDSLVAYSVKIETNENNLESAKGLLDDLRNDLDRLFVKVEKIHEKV
UniProt P11021, residues 19-654: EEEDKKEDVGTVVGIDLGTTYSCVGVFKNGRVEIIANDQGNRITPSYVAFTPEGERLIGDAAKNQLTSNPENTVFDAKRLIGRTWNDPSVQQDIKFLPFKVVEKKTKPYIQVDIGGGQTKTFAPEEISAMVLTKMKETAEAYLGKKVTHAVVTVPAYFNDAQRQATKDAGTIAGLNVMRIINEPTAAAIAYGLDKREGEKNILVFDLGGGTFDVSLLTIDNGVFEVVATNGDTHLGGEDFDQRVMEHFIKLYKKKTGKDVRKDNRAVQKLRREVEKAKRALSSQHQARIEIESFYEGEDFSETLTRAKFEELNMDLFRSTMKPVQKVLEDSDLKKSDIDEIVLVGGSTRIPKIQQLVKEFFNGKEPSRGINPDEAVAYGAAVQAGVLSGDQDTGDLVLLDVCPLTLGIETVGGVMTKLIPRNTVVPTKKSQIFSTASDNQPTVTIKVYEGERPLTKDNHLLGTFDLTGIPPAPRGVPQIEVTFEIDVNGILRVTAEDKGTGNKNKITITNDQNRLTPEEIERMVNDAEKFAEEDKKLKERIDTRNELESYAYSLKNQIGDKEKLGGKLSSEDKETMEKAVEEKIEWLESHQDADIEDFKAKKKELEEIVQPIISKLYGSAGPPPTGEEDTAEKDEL

What was measured:
[1] = molecular target: MAVS (endogenous) (human (endogenous in HepG2, HepG2.2.15, Huh7)) (UniProt Q7Z434); experiment: affinity purification with mass spectrometry; protein mixtures containing KNG1 and MAVS identified by LC/MS; proteins enriched by both MAVS and KNG1
[2] = molecular target: KNG1-Flag (pcDNA3.1-KNG1-3 × Flag) (human) (UniProt P01042); experiment: as above

HSP90A (endogenous) (from UniProt P07900 1-732)
binding [1]: binds
binding [2]: binds

EEF1G (from UniProt P26641 1-437)
binding [1]: binds
binding [2]: binds

CKAP4 (from UniProt Q07065 1-602)
binding [1]: binds
binding [2]: binds

HSPA5 (from UniProt P11021 19-654)
binding [1]: binds
binding [2]: binds

No constants are given. Whether binding was seen depends on the method and setting. In cells and extracts the contact can be indirect. A yes stands for co-enrichment or nearness to the bait. Other partners may have been found.
